Here are results for eight sequences from paper PMC11358422.

Chains of the proteins cited; added tags and fusions are not shown. Residues count along the entry.
UniProt P02192, 2-154: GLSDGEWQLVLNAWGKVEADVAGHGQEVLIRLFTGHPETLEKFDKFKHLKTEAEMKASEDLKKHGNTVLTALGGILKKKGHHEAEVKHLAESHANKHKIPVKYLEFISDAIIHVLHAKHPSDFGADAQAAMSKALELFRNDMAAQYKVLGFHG

For some assays here: Negatives hold for the conditions tested. For some assays here: Where a protein sequence is shown, tags need not be part of it. For some assays here: For at least one entry, the source does not settle the construct or the ends of the probe. For some assays here: At least one result comes from cells or an extract, where the contact may be indirect. For some assays here: Whether high values mean tight binding is not given here for every scale.

The subject of one series is hemoglobin. As to the kind of experiment: immunofluorescence microscopy. The conditions noted are these: haemoglobin cooked, aged ceramic shard; 5' biotin; microscopy: aptamer overnight at room temperature, wash PBS + 5 mM MgCl2; commercial protein; label: 5' biotin; single-stranded DNA.
The next series concerns the target myoglobin (UniProt P02192). Kind of series: ELISA. The settings on record: raw beef suspension; 5' biotin; ELISA: suspension coated in 100 mM NaHCO3 pH 9.6, 5% CSA block, aptamer in Base Pair Aptamer Folding Buffer, washes 0.02% Tween-20 in PBS; protein in an extract; label: 5' biotin; single-stranded DNA.
Another series addresses T1, ovalbumin (UniProt P01012).
T1 sequence (looked up, limits assumed): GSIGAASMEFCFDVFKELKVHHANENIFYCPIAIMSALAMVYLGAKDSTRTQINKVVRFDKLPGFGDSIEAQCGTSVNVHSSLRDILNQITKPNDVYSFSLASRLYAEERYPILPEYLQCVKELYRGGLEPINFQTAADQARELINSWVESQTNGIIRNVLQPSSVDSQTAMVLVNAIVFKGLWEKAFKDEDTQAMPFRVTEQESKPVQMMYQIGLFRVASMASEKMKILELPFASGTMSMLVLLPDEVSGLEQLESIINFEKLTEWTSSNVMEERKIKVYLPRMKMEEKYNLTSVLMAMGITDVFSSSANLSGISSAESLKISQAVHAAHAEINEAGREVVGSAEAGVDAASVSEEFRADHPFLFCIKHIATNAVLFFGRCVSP
Kind of series: immunofluorescence microscopy. The settings on record: ovalbumin cooked, aged ceramic shard; 5' biotin; microscopy: aptamer overnight at room temperature, wash PBS + 5 mM MgCl2; commercial protein; label: 5' biotin; single-stranded DNA.

Series [1] has as its target bovine serum albumin (bovine) (UniProt P02769). Kind of series: ELISA. The settings on record: BSA 10 ug/ml; 5' biotin; ELISA: suspension coated in 100 mM NaHCO3 pH 9.6, 5% CSA block, aptamer in Base Pair Aptamer Folding Buffer, washes 0.02% Tween-20 in PBS; commercial protein; label: 5' biotin; single-stranded DNA; counted as no binding.
In series [2] the test system is gelatin (collagen) (bovine skin). Kind of series: immunofluorescence microscopy. The settings on record: gelatin cooked, aged ceramic shard; 5' biotin; microscopy: aptamer overnight at room temperature, wash PBS + 5 mM MgCl2; native protein; label: 5' biotin; single-stranded DNA.
The target of series [3] is lysozyme (chicken) (UniProt P00698). As to the kind of experiment: immunofluorescence microscopy. The conditions noted are these: lysozyme cooked, aged ceramic shard; 5' biotin; microscopy: aptamer overnight at room temperature, wash PBS + 5 mM MgCl2; commercial protein; label: 5' biotin; single-stranded DNA.
The target is the same in series [4]. Kind of series: ELISA. The settings on record: signal at MilliQ control level; 5' biotin; ELISA: suspension coated in 100 mM NaHCO3 pH 9.6, 5% CSA block, aptamer in Base Pair Aptamer Folding Buffer, washes 0.02% Tween-20 in PBS; commercial protein; label: 5' biotin; single-stranded DNA; counted as no binding.

Consider “TTAGCGAGCTGCACACACAATGGACTCGTCATACCGTGCTGTTT [HA]”, for which the binding result in the series with hemoglobin is on record as “binds”.
“CCCTCCTTTCCTTCGACGTAGATCTGCTGCGTTGTTCCGA [Mb1]”: in the series with myoglobin, the binding signal is 0.488 OD405.
“GGCAGGAAGACAAACACCAGGTGAGGGAGACGACGCGAGTGTTAGATGGTAGCTGTTGGTCTGTGGTGCTGT [Hb]”: the binding result in the series on hemoglobin is reported as “no binding”.
With ATCAGGGCTAAAGAGTGCAGAGTTACTTAG [Clone1], the binding result with ovalbumin is “no binding”. The sequence further showed a binding signal in series [1] of 0.027 OD405.
As to “ATCCGTCACACCTGCTCTAGACGAATATTGTATCCTCATTAGATCAAAAACGGGTGGTGTTGGCTCCCGTAT [CTx 2R (CTx 2R-2h)]”, in series [2], the binding result was “no binding”.
In the case of “ACGCACACCAGAGACAAGTAGCCCCCCAAACGCG [G15 T1]”, in the series with hemoglobin, the binding result was “no binding”.
Turning to “AGCAGCACAGAGGTCAGATGGCAGCTAAGCAGGCGGCTCACAAAACCATTCGCATGCGGCCCTATGCGTGCTACCGTGAA [Apt1L]”, the binding result in the series with lysozyme (chicken) [3] and with ovalbumin was “no binding” in each case. The binding signal with lysozyme (chicken) [4] came out at 0.037 OD405.
Regarding “TTTTTGGTTGACGGCAGTCGGCGGTATGCGCATATCGTGTTGGTA [D1]”, the binding result in series [2] is “binds”.
